The results in this text go back to PMC6039025.

These are yes or no findings as the source states them, for the method shown. Some binding calls cover weakened binding; strength is not graded here. Tags and fused reporters may be left off the sequences shown.

The target of this test is T1, Smc4-K191M, 3xStrepTagII-tagged (S. cerevisiae) (UniProt Q12267).
T1 sequence: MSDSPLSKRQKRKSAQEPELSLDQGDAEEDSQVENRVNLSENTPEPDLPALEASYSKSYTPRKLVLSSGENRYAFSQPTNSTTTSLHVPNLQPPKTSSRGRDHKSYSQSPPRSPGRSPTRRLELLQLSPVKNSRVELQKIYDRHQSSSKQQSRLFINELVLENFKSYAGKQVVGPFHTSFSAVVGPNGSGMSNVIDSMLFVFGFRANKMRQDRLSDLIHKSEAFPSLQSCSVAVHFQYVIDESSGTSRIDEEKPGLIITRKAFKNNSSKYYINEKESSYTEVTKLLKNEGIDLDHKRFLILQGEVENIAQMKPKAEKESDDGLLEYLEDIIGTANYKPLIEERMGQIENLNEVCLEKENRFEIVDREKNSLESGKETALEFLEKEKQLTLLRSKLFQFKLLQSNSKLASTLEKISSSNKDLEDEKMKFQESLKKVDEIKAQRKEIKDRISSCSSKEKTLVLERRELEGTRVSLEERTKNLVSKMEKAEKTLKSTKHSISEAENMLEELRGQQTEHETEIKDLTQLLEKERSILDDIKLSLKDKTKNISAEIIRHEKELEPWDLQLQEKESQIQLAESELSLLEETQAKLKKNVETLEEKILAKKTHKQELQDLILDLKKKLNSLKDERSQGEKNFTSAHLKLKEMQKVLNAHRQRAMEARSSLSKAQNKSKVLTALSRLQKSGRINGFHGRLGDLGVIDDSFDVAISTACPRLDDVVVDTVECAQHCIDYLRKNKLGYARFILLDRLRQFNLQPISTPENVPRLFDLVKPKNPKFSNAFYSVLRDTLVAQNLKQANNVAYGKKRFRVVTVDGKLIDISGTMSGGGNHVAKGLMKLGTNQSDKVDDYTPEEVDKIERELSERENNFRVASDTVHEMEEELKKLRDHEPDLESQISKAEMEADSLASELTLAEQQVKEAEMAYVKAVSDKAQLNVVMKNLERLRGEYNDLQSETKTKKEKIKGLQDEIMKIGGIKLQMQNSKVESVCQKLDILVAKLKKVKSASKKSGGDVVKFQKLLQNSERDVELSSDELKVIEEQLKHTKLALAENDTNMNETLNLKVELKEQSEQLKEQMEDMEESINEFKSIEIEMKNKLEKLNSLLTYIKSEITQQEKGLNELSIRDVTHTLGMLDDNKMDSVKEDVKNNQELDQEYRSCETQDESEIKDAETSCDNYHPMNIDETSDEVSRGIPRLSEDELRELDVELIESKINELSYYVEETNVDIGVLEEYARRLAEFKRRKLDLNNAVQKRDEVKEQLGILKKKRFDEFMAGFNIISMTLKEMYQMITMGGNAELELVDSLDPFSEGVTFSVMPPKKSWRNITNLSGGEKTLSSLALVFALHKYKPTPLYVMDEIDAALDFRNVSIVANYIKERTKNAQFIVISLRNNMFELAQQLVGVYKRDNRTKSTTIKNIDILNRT
The test can be described thus: tandem affinity co-purification (Ni-NTA, Strep-Trap) + SEC; five condensin subunits co-overexpressed in yeast; extract in 500 mM NaCl, 10 mM Tris-HCl pH 8.0, 10% glycerol; Ni-NTA (His tags on Brn1 and Ycg1), then Strep-Trap HP (3xStrepTagII on Smc4), then Superose 6 10/300 in 200 mM NaCl, 50 mM Tris-HCl pH 8.0; subunits seen by SDS-PAGE and Coomassie staining.

B1: Ycs4 (protein, UniProt Q06156 1-1176)
chain: MSGFSLSEYLTKFQTTDRESYPRLQDPSRELNVIIDQLAVSPEQIDASPDSLEALIDLCHDFPHLTPKLQTQLSYLISSSLSNLSKDIKANLSSNVNFTEIGGLIPQWKRHLEEYGYLIQVLLTFLQDELHKVSSQSTNLNRSAKNSKNDSANVELFKRDCNQMENLLESITKLLEINLSKIFQTTPEKDLFIGLFTRPLFVLLEIEPVTKVSSLKMFIQRILAMCVKNHGQSSSIQSSLMTNLTYFLHLSVFNAELLKLLNDEYNYPQLTEDILKEISTRVFNAKDTTGPKAISNFLIKLSELSPGIMLRQMNLVITLLNNSSITLRCSVVEACGNIVAELAQDPQTMEHYKQQIAVLIELLEERFQDSNPYVRTKAIQGCSKICDLSSKFNKSKAKFTSLAVRSLQDRSSLVRRNSVKLLSKLLLKHPFKAIHGSQLRLSEWEEYLKGSESQLNSTLKKVESQETLNDTIERSLIEEEVEQDEGQCRTELEGSFNKSAELSRIENEVENINATNTSVLMKLKLMIVYYKDAISFIKEIHKSIELISNLLFSKNRNEVLESMDFLVLADAFDIELSEFGIKKMLHLVWMKGTNDEGTSISVHLIECYKQLFLTAPDSCNMQEKAAHIAKNLINLSIGASIADLASLEQLLGMMYEQKLIDQHVINILWAIYNSASKASMQKEQNVNNRDSEKGFSKEQIHGSIIILGMLSLADNEIALKGLESLLNIGLGAVGLKDLTLCRYSCLALERMVPKRSTIITKAINQELEDVAVKKLYAIIINYTKDNEYYPMCEQALSALFTISSKPDILATDLIREKTMMTFGKPEEEDSILSLEQSSRVVSLSQLLFIVGQVAIKTLVYLEKCEAEFKKRKIEAETRNGKVKNQGADVTNTTQDNGGDKELEMIGGTNEDDFTDAIQFVKENELLFGEKSILGKFCPIVEEIVSNSSRFSDPMLQRTATLCLEKLMCLSSKYCEKSLPLLITVMEKSPDPTIRSNAVLGLGDMAVCFNNLVDENTDYLYRRLHDENLMVQRTCLMTVTFLILAGQVKVKGQLGEMAKCLDNPDQGISDMCRLFFTELASKDNAIYNGFIDIFSNLSSDDLLGKESFKKIIKFLLTFIDKERHQKQLNEKLVGRLRKCETQKQWDDIAFVLNNLPYKNEDVTALLEQGFKVVSAKE
With B1, the binding entry was “binds”.

B2: Smc2 (protein, UniProt P38989 1-1170)
chain: MKVEELIIDGFKSYATRTVITDWDPQFNAITGLNGSGKSNILDAICFVLGIASMSTVRASSLQDLIYKRGQAGVTKASVTIVFDNTDKSNSPIGFTNSPQISVTRQVVLGGTSKYLINGHRAPQQSVLQLFQSVQLNINNPNFLIMQGKITKVLNMKPSEILSLIEEAAGTKMFEDRREKAERTMSKKETKLQENRTLLTEEIEPKLEKLRNEKRMFLEFQSTQTDLEKTERIVVSYEYYNIKHKHTSIRETLENGETRMKMLNEFVKKTSEEIDSLNEDVEEIKLQKEKELHKEGTISKLENKENGLLNEISRLKTSLSIKVENLNDTTEKSKALESEIASSSAKLIEKKSAYANTEKDYKMVQEQLSKQRDLYKRKEELVSTLTTGISSTGAADGGYNAQLAKAKTELNEVSLAIKKSSMKMELLKKELLTIEPKLKEATKDNELNVKHVKQCQETCDKLRARLVEYGFDPSRIKDLKQREDKLKSHYYQTCKNSEYLKRRVTNLEFNYTKPYPNFEASFVHGVVGQLFQIDNDNIRYATALQTCAGGRLFNVVVQDSQTATQLLERGRLRKRVTIIPLDKIYTRPISSQVLDLAKKIAPGKVELAINLIRFDESITKAMEFIFGNSLICEDPETAKKITFHPKIRARSITLQGDVYDPEGTLSGGSRNTSESLLVDIQKYNQIQKQIETIQADLNHVTEELQTQYATSQKTKTIQSDLNLSLHKLDLAKRNLDANPSSQIIARNEEILRDIGECENEIKTKQMSLKKCQEEVSTIEKDMKEYDSDKGSKLNELKKELKLLAKELEEQESESERKYDLFQNLELETEQLSSELDSNKTLLHNHLKSIESLKLENSDLEGKIRGVEDDLVTVQTELNEEKKRLMDIDDELNELETLIKKKQDEKKSSELELQKLVHDLNKYKSNTNNMEKIIEDLRQKHEFLEDFDLVRNIVKQNEGIDLDTYRERSKQLNEKFQELRKKVNPNIMNMIENVEKKEAALKTMIKTIEKDKMKIQETISKLNEYKRETLVKTWEKVTLDFGNIFADLLPNSFAKLVPCEGKDVTQGLEVKVKLGNIWKESLIELSGGQRSLIALSLIMALLQFRPAPMYILDEVDAALDLSHTQNIGHLIKTRFKGSQFIVVSLKEGMFANANRVFRTRFQDGTSVVSIM
Turning to B2, the binding entry is on record as “binds”.

B3: Brn1-3xHA-12xHIS (protein, UniProt P38170 1-754)
chain: MTTQLRYENNDDDERVEYNLFTNRSTMMANFEEWIKMATDNKINSRNSWNFALIDYFYDLDVLKDGENNINFQKASATLDGCIKIYSSRVDSVTTETGKLLSGLAQRKTNGASNGDDSNGGNGEGLGGDSDEANIEIDPLTGMPISNDPDVNNTRRRVYNRVLETTLVEFETIKMKELDQELIIDPLFKKALVDFDEGGAKSLLLNTLNIDNTARVIFDASIKDTQNVGQGKLQRKEEELIERDSLVDDENEPSQSLISTRNDSTVNDSVISAPSMEDEILSLGMDFIKFDQIAVCEISGSIEQLRNVVEDINQAKDFIENVNNRFDNFLTEEELQAAVPDNAEDDSDGFDMGMQQELCYPDENHDNTSHDEQDDDNVNSTTGSIFEKDLMAYFDENLNRNWRGREHWKVRNFKKANLVNKESDLLEETRTTIGDTTDKNTTDDKSMDTKKKHKQKKVLEIDFFKTDDSFEDKVFASKGRTKIDMPIKNRKNDTHYLLPDDFHFSTDRITRLFIKPGQKMSLFSHRKHTRGDVSSGLFEKSTVSANHSNNDIPTIADEHFWADNYERKEQEEKEKEQSKEVGDVVGGALDNPFEDDMDGVDFNQAFEGTDDNEEASVKLDLQDDEDHKFPIRENKVTYSRVSKKVDVRRLKKNVWRSINNLIQEHDSRKNREQSSNDSETHTEDESTKELKFSDIIQGISKMYSDDTLKDISTSFCFICLLHLANEHGLQITHTENYNDLIVNYEDLATTQAAS
As to B3, the binding result is “binds”.

B4: Ycg1-3xFLAG-9xHIS (protein, UniProt Q06680 1-1035)
chain: MQDPDGIDINTKIFNSVAEVFQKAQGSYAGHRKHIAVLKKIQSKAVEQGYEDAFNFWFDKLVTKILPLKKNEIIGDRIVKLVAAFIASLERELILAKKQNYKLTNDEEGIFSRFVDQFIRHVLRGVESPDKNVRFRVLQLLAVIMDNIGEIDESLFNLLILSLNKRIYDREPTVRIQAVFCLTKFQDEEQTEHLTELSDNEENFEATRTLVASIQNDPSAEVRRAAMLNLINDNNTRPYILERARDVNIVNRRLVYSRILKSMGRKCFDDIEPHIFDQLIEWGLEDRELSVRNACKRLIAHDWLNALDGDLIELLEKLDVSRSSVCVKAIEALFQSRPDILSKIKFPESIWKDFTVEIAFLFRAIYLYCLDNNITEMLEENFPEASKLSEHLNHYILLRYHHNDISNDSQSHFDYNTLEFIIEQLSIAAERYDYSDEVGRRSMLTVVRNMLALTTLSEPLIKIGIRVMKSLSINEKDFVTMAIEIINDIRDDDIEKQEQEEKIKSKKINRRNETSVDEEDENGTHNDEVNEDEEDDNISSFHSAVENLVQGNGNVSESDIINNLPPEKEASSATIVLCLTRSSYMLELVNTPLTENILIASLMDTLITPAVRNTAPNIRELGVKNLGLCCLLDVKLAIDNMYILGMCVSKGNASLKYIALQVIVDIFSVHGNTVVDGEGKVDSISLHKIFYKVLKNNGLPECQVIAAEGLCKLFLADVFTDDDLFETLVLSYFSPINSSNEALVQAFAFCIPVYCFSHPAHQQRMSRTAADILLRLCVLWDDLQSSVIPEVDREAMLKPNIIFQQLLFWTDPRNLVNQTGSTKKDTVQLTFLIDVLKIYAQIEKKEIKKMIITNINAIFLSSEQDYSTLKELLEYSDDIAENDNLDNVSKNALDKLRNNLNSLIEEINERSETQTKDENNTANDQYSSILGNSFNKSSNDTIEHAADITDGNNTELTKTTVNISAVDNTTEQSNSRKRTRSEAEQIDTSKNLENMSIQDTSTVAKNVSFVLPDEKSDAMSIDEEDKDSESFSEVC
For B4, the binding result was “binds”.
